Publication PMC2954458 (Biochemistry, 2010)

By UniProt entry, the sequences of proteins in these tests, tags left out. Where a name states a change or a piece, a line headed by the entry shows the natural chain unless it says otherwise.
UniProt P33302: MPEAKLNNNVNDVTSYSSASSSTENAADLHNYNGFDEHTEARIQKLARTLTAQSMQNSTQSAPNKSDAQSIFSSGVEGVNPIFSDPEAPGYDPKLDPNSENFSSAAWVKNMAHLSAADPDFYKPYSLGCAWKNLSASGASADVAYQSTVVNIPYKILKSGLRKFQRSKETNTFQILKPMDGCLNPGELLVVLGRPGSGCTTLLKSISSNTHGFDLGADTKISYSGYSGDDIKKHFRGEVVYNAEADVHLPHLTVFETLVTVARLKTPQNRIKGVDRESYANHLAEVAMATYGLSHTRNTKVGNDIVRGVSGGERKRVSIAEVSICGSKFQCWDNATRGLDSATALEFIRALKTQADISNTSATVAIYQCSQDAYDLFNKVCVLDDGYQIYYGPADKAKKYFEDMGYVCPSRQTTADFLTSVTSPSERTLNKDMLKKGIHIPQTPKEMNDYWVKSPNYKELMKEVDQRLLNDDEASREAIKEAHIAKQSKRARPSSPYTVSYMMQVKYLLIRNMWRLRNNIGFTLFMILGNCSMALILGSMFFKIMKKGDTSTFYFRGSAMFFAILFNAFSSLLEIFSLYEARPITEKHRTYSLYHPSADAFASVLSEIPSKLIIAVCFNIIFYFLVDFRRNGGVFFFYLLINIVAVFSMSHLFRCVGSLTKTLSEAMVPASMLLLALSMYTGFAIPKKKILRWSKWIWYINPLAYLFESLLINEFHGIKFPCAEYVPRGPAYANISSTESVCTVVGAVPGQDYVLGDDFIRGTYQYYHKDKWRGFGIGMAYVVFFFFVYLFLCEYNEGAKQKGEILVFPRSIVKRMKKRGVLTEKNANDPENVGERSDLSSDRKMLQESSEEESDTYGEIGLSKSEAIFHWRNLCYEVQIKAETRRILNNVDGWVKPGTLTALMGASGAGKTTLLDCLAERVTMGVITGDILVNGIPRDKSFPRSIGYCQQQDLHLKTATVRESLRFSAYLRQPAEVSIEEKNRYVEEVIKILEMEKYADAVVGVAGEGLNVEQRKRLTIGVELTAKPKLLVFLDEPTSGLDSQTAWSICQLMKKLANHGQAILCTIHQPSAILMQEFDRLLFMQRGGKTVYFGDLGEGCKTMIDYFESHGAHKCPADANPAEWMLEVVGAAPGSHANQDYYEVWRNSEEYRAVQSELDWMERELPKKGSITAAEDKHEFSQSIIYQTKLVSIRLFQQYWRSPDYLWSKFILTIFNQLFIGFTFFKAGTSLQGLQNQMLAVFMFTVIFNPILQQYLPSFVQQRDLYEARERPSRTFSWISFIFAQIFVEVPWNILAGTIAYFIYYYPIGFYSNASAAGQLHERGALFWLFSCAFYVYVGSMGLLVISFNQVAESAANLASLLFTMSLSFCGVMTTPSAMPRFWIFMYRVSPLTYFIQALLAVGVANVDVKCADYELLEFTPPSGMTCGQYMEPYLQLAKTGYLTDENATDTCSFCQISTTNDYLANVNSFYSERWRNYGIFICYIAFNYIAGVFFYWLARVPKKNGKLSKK

Biological target: Pdr5 (Saccharomyces cerevisiae, UniProt P33302)
Experiment: biochemical

IC50: ~20 µM
SMILES: Clc1ccccc1C(c1ccccc1)(c1ccccc1)n1ccnc1 [clo, clotrimazole]
